Our source for the binding values is publication doi:10.1101/2020.11.04.367136 (bioRxiv, 2020).

Protein sequences, listed by entry. Tags and fused reporters are not part of them. Residues count along the entry.
UniProt P12954, residues 1-898: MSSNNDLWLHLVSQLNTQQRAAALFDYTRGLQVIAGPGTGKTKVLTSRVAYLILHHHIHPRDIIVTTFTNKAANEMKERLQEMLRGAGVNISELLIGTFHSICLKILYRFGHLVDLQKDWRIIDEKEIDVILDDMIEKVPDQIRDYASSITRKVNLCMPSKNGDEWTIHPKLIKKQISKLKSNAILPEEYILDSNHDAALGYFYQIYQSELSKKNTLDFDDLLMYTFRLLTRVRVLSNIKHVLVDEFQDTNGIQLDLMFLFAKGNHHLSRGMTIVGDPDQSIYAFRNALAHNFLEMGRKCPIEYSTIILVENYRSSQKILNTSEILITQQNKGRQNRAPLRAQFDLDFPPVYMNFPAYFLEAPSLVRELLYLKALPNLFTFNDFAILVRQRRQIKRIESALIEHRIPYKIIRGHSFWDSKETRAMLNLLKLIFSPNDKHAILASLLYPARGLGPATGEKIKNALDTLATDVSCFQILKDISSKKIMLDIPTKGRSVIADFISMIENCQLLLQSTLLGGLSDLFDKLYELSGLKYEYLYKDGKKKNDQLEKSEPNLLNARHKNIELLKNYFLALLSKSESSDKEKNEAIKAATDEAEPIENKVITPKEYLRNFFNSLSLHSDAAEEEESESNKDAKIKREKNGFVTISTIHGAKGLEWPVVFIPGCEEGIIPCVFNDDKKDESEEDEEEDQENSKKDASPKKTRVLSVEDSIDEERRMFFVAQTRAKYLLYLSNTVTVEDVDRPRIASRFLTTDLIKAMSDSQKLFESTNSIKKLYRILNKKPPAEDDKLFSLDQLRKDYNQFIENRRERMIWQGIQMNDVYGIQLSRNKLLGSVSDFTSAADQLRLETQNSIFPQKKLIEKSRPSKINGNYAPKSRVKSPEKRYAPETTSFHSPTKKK

No constants are given. Whether binding was seen depends on the method and setting. Some results given as binding are weak or reduced against the parent protein; the word gives no strength. Tags and fused reporters may be left off the sequences shown.

Test [1] addresses T1, GFP–Rad55–Rad57 complex (His6–GFP–Rad55 and FLAG–Rad57) (S. cerevisiae) (UniProt P38953+P25301).
T1 sequence 1: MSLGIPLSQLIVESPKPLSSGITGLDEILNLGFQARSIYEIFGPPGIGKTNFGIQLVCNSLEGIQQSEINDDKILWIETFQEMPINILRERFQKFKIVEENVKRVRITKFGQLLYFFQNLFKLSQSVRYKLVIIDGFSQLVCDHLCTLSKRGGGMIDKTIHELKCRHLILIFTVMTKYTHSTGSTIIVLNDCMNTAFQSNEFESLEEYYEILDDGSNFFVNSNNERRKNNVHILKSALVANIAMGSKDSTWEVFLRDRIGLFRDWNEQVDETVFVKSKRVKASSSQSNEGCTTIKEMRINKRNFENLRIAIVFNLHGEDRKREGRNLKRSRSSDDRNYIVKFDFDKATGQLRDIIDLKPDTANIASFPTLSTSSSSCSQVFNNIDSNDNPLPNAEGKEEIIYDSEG
T1 sequence 2: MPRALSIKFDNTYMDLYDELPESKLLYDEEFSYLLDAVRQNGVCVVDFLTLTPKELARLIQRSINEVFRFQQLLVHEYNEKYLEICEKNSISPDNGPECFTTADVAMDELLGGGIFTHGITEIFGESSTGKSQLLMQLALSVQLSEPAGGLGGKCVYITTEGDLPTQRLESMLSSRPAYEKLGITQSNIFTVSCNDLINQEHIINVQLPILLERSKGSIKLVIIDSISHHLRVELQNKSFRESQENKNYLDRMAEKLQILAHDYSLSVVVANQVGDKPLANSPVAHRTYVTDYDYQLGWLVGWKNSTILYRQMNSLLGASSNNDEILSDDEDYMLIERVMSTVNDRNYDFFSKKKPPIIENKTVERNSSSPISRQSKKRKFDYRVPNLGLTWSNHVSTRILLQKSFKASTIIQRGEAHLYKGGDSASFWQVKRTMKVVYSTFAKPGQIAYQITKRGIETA
In words: pull-down.

The target in test [2] is T2, His6–GFP–Rad55 (S. cerevisiae) (UniProt P38953).
T2 sequence: T1 sequence 1
In words: co-purification.

The target of a further test is T3, Dmc1 (S. cerevisiae) (UniProt P25453).
T3 sequence: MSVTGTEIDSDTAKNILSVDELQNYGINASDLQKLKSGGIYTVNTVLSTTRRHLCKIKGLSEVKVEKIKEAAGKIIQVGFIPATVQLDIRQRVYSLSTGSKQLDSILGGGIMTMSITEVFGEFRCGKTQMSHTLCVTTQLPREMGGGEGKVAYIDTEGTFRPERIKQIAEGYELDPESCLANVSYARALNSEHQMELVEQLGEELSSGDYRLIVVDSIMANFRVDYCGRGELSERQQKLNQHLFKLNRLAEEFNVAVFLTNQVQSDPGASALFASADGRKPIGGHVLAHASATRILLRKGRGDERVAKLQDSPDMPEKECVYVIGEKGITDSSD
As to the kind of experiment: single-molecule ssDNA curtain assay.

A further test deals with T4, Rad51 (S. cerevisiae, UniProt P25454 1-400).
T4 sequence (looked up): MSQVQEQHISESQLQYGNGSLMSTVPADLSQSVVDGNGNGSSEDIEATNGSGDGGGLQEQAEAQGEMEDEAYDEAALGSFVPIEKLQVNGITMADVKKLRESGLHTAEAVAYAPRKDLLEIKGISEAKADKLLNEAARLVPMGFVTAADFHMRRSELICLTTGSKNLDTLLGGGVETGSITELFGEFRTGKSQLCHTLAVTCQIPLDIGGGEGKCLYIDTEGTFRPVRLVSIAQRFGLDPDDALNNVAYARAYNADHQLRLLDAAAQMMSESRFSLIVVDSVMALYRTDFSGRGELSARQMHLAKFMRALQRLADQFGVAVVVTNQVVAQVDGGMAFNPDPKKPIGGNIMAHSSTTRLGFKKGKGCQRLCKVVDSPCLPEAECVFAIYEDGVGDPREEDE
As to the kind of experiment: single-molecule ssDNA curtain assay.

Take “GFP–Srs2(1–898) (from UniProt P12954 1-898) (domain or fragment)”: the binding entry in test [1] was “binds”.

B1: FLAG–Rad57 (protein, UniProt P25301 1-460)
chain: T1 sequence 2
For B1, the binding result in test [2] is given as “binds”.

B2: GFP–Rad55–Rad57 complex (His6–GFP–Rad55 and FLAG–Rad57) (complex, UniProt P38953 1-406; P25301 1-460)
chain 1: T1 sequence 1
chain 2: T1 sequence 2
Regarding B2, the values for the binding result with Dmc1 (S. cerevisiae) and in the test with Rad51 were “no binding (tested: 60 nM)” and “binds”, respectively.
